{"source": "patent US20150258217A1", "about": "(THE GENERAL HOSPITAL CORPORATION, priority 2012, published 2015)", "key": {"[1]": {"experiment": "general procedure: Fmoc solid-phase peptide synthesis; Rink Amide MBHA resin; PyBOP/DiPEA", "details": "conjugation step"}, "[2]": {"experiment": "general procedure: Fmoc solid-phase peptide synthesis; Rink Amide MBHA; PyBOP/DiPEA", "details": "whole synthesis, scale 0.15 mmol"}}, "data": [{"substance": "DOTA-Lys(CyAL5.5)-Lys(5 kDa PEG)- βAla -Lys(sPEG-RGD)", "values": [{"measurement": "conjugation yield", "setting": "[1]", "result": ">90", "unit": "%"}]}, {"substance": "DOTA-Lys(CyAL5.5)-Lys(5 kDa PEG)- βAla - Lys(N3)-NH2", "values": [{"measurement": "conjugation yield", "setting": "[1]", "result": ">90", "unit": "%"}]}, {"substance": "DOTA-Lys(CyAL5.5)-Lys(NH2)-β-Ala-Lys(N3)—NH2", "values": [{"measurement": "isolated yield", "setting": "[2]", "result": 40, "unit": "%"}]}, {"substance": "DOTA-Lys(CyAL5.5)-Lys(NH2)-β-Ala-Lys(N3-DBCO-PEG4-cRGD)-NH2", "values": [{"measurement": "conjugation yield", "setting": "[1]", "result": "˜99%"}]}]}
